No constants are given. Whether binding was seen depends on the method and setting. Binding seen in cells or lysates may run through a third protein. Here binding means that the protein was enriched with, or labelled near, the bait; the list need not be complete.
Target: FT-AGIA-AirID (Arabidopsis), Q9SXZ2
Assay: proximity labelling; co-translational: FT-AirID co-synthesised with AGIA-FD or AGIA-DHFR in the wheat cell-free system with 500 nM biotin, 16 hr at 16 °C; immunoblotting
Conditions: remark: other sources report otherwise

- binding: binds
B1: AGIA-FD, Q84JK2 1-285 (protein)
chain: MLSSAKHQRNHRLSATNKNQTLTKVSSISSSSPSSSSSSSSTSSSSPLPSQDSQAQKRSLVTMEEVWNDINLASIHHLNRHSPHPQHNHEPRFRGQNHHNQNPNSIFQDFLKGSLNQEPAPTSQTTGSAPNGDSTTVTVLYSSPFPPPATVLSLNSGAGFEFLDNQDPLVTSNSNLHTHHHLSNAHAFNTSFEALVPSSSFGKKRGQDSNEGSGNRRHKRMIKNRESAARSRARKQAYTNELELEVAHLQAENARLKRQQDQLKMAAAIQQPKKNTLQRSSTAPF
